From PubChem BioAssay AID2685 (National Center for Advancing Translational Sciences (NCATS), 2010)
This is one part of the list. Further columns of the screen follow, without active or inactive calls. Most of these compounds were active or inconclusive in the main read-out, so they are no random draw. The note in brackets gives the kind of curve behind each potency; many fits are weak.

Test: qHTS Assay for Lipid Storage Modulators in Drosophila S3 Cells;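 as to cell number change: cells counted by Cell Tracker Red CMTPX staining in the red channel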
Details: BODIPY lipid droplet fluorescence, 18-24 h; for cell number change: measured here: cell count max response, cells fed with added oleic acid
Outline: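 Drosophila S3 cells got compounds at several concentrations plus oleic acid (400 uM solution). Laser-scanning cytometry with 488 nm excitation read lipid droplets at 500-530 nm and cells at 575-640 nm. Percent activity was relative to 20 uM Triacsin C.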

[1] = measured here: cell number channel AC50, cells fed with added oleic acid
[2] = measured here: lipid fluorescence (Fed channel) AC50, cells fed with added oleic acid

| Compound | cell number change [%] | AC50 [1] | AC50 [2] |
| --- | --- | --- | --- |
| CCC(=O)Nc1ccccc1 | 4.6 |  |  |
| COC(=O)C1=C(c2ccc(OC(F)(F)F)cc2)C[C@@H]2CC[C@H]1N2C(=O)NC1Cc2ccccc2C1 | -3.25 | 6.51 µM [falling, single point] | 29.1 µM [falling, partial curve, poor fit] |
| CC(C)(C)C(=O)NC1CCSC1=O (stereo unspecified) | 10.1 | 0.651 µM [falling, full curve] | 1.03 µM [falling, full curve] |
| CN(C)C(=O)CSc1nnc([C@@H](N)Cc2ccccc2)o1 | 30.7 | 32.6 µM [rising, single point] |  |
| O=c1[nH]c(O)c(/C=C2\C=NN=C2c2ccccc2)c(=O)[nH]1 |  | 6.51 µM [rising, single point] |  |
| CCN1c2nc3c(C)cccn3c(=O)c2CC2(C(=O)N(C)C(=O)N(C)C2=O)C1C (stereo unspecified) |  |  | 0.651 µM [rising, single point] |
| COc1ccc2c(C)c(CC(=O)N3C[C@H]4C[C@@H](C3)c3cccc(=O)n3C4)c(=O)oc2c1 | 11.4 |  | 29.1 µM [rising, single point] |
| CC(=O)NCC(=O)Nc1ccc(Br)cc1C(=O)c1ccccc1 | 22.8 |  |  |
| Cc1cccc(OP(N)(=O)Oc2cccc(C)c2C)c1C | 5.73 |  |  |
| CCCCC12CNCC(C)(CNC1)C2=O | -14.8 |  | 20.6 µM [falling, partial curve] |
| CCN(CC)C(=O)c1ccc(NC(=O)CSc2nnnn2-c2cc(OC)ccc2OC)cc1 | 22.6 |  |  |
| COc1ccc(NC(=O)c2cn(CCC#N)nc2-c2ccc(OC)c(OC)c2)cc1 | -25.5 |  | 1.03 µM [rising, full curve] |
| CCc1cccc2c(C#N)cn(CC(=O)N3CCOCC3)c12 | -79.2 | 25.9 µM [falling, partial curve] |  |
| Cc1ccc(-c2nc3ccccc3c(=O)n2-c2cc(C)ccn2)cc1 | -26 |  |  |
| CCCCCSc1cc(O)c(C(CNC)C(C)C)cc1OC (stereo unspecified) |  |  | 4.11 µM [falling, partial curve] |
| Cc1cccc(-c2nc3ccccc3c(=O)n2-n2cccc2)c1 | 18.3 |  |  |
| Cc1sc2ccccc2c1CC1=NCCN1 | 21.7 |  | 4.11 µM [rising, partial curve] |
| O=C(Cn1c(=O)oc2ccc(Cl)cc21)NC1CCCCC1 |  | 6.51 µM [rising, single point] |  |
| O=C1NC(=S)NC(=O)C1C/C=C/c1ccccc1 | 16.6 |  | 0.517 µM [falling, full curve, poor fit] |
| Cn1c(O)c(C(=Nc2ccccc2)SCc2ccccc2Cl)c(=O)n(C)c1=O | -19 |  | 32.6 µM [falling, single point] |

| Compound | cell number change [%] | AC50 [1] | AC50 [2] |
| --- | --- | --- | --- |
| Cn1c(O)c(/C=C2\C=Nc3ccc(Br)cc32)c(=O)n(C)c1=O | -9.68 |  | 6.51 µM [rising, partial curve, poor fit] |
| COc1ccc(OCCOc2cccc(C=C3C(=O)NC(=O)NC3=O)c2)cc1 | 27.7 |  | 29.1 µM [rising, single point] |
| COc1ccccc1N=Cc1c(O)n(C)c(=O)n(C)c1=O | 32.7 | 0.164 µM [rising, full curve, poor fit] | 3.66 µM [rising, partial curve, poor fit] |
| Cc1ccc(N(C)C(=O)Oc2cccc3cccnc23)cc1 | -3.21 |  | 29.1 µM [rising, single point] |
| CC(C)(O)[C@H]1O[C@H]2CC[C@@]3(C)[C@@](O)(CC[C@H]4Cc5c([nH]c6ccccc56)[C@@]43C)C2=CC1=O | 17.8 | 6.51 µM [rising, single point] |  |
| O=P(NS(=O)(=O)c1ccc(Br)cc1)(Oc1ccccc1)Oc1ccccc1 | -84.1 | 25.9 µM [falling, partial curve] | 6.51 µM [falling, single point] |
| CCOc1ccc([N+](=O)[O-])cc1CNCCc1ccccc1 | -2.5 | 0.13 µM [falling, single point] | 0.103 µM [falling, partial curve, poor fit] |
| COc1ccc(-c2nn(CCC#N)cc2C(=O)NCc2ccccc2)cc1 | 25.2 |  | 4.11 µM [rising, single point] |
| Cc1c(-c2cccc(Cl)c2)nc2ccccc2c1C(=O)N1CCC2(CC1)OCCO2 | -62.7 | 22.4 µM [falling, single point] | 11.2 µM [falling, partial curve] |
| CCN(CCCCOC(=O)c1ccc(OC)c(OC)c1)C(C)Cc1ccc(OC)cc1 (stereo unspecified) |  | 6.51 µM [falling, single point] |  |
| O=C1/C(=C\c2ccc3c(c2)OCO3)N2CCC1CC2 | 26.1 |  | 13 µM [rising, partial curve, poor fit] |
| CCC1(c2ccccc2)C(=O)N(COC)C(=O)N(COC)C1=O | 31.8 | 0.0651 µM [rising, full curve, poor fit] | 0.092 µM [falling, full curve] |
| COC(=O)C1=C(c2ccc(OC(F)(F)F)cc2)C[C@@H]2CC[C@H]1N2C(=O)N1CCC(O)CC1 | 8.59 |  | 0.146 µM [rising, full curve, poor fit] |
| COc1ccc(C2CN(C)CC2C(=O)c2ccc(F)cc2)cc1Cl (stereo unspecified) | 27.5 |  |  |
| CN(C)CC1CSCCC1(O)c1cccc(Cl)c1 (stereo unspecified) | 30.4 | 6.51 µM [rising, full curve, poor fit] | 2.59 µM [rising, partial curve] |
| O=c1c2ccccc2nc(-c2ccc(-c3ccccc3)cc2)n1-c1ccncc1 |  |  | 0.259 µM [rising, full curve, poor fit] |
| O=C(CN1CCN(Cc2ccc(Cl)cc2)C1=O)N1CCC2(CC1)OCCO2 | 14.4 | 1.84 µM [falling, partial curve] | 4.11 µM [falling, single point] |
| CCn1c(C)cc(/C=C2\C(=O)NC(=O)N(c3ccccc3C)C2=O)c1C | 1.86 |  | 0.291 µM [falling, partial curve, poor fit] |
| CCOP(=O)(OCC)C(O)c1ccc2c(c1)OCO2 (stereo unspecified) | 35 |  | 29.1 µM [rising, single point] |
| CCOC(=O)CSc1ccc(C(=O)N2CCC3(CC2)OCCO3)cc1[N+](=O)[O-] | 17.8 |  | 0.00461 µM [rising, full curve, poor fit] |

Record cards (already shown).
CCOc1ccc([N+](=O)[O-])cc1CNCCc1ccccc1 as listed: cell number change [%]: -2.5; AC50 [1]: 0.13 µM [falling, single point]; AC50 [2]: 0.103 µM [falling, partial curve, poor fit]
O=P(NS(=O)(=O)c1ccc(Br)cc1)(Oc1ccccc1)Oc1ccccc1 as listed: cell number change [%]: -84.1; AC50 [1]: 25.9 µM [falling, partial curve]; AC50 [2]: 6.51 µM [falling, single point]

The list continues:

| Compound | cell number change [%] | AC50 [1] | AC50 [2] |
| --- | --- | --- | --- |
| Cc1cc(/C=C2\C(=O)NC(=O)N(Cc3ccccc3)C2=O)c(C)n1-c1ccc(Cl)c(C(=O)O)c1 | 10.2 | 0.164 µM [rising, full curve, poor fit] | 0.146 µM [rising, full curve, poor fit] |
| O=c1[nH]c(=O)n(Cc2ccccc2Cl)c(O)c1/C=C1/C=CC=N1 | 14 | 2.31 µM [rising, partial curve, poor fit] |  |
| C/C(=N\N1CCCCCC1)c1c(O)n(-c2ccc(Cl)cc2)c(=O)[nH]c1=O | -37.6 | 32.6 µM [falling, single point] | 29.1 µM [falling, single point] |
| O=[N+]([O-])c1ccc(N2CCCC(C(F)(F)F)C2)c2ccncc12 (stereo unspecified) | 5.65 |  | 29.1 µM [falling, single point] |
| CCOc1ccccc1-n1c(O)c(C=Nc2ccc(N(CC)CC)cc2)c(=O)[nH]c1=O | -2.64 |  |  |
| Cc1ccc(Oc2cc(NN3CCCCC3)c([N+](=O)[O-])cc2[N+](=O)[O-])c([N+](=O)[O-])c1 | 16.2 |  | 29.1 µM [rising, single point] |
| Cc1cc(/C=C2/C(=O)NC(=O)N(Cc3ccco3)C2=O)c(C)n1-c1ccc(C(=O)O)cc1 | -3.5 |  |  |
| CCCCCn1c(=O)c(C(=O)NCc2ccc(Cl)cc2)c(O)c2ccccc21 | 8.39 |  | 29.1 µM [falling, single point] |
| Cc1ccc(CN2CCCN(Cc3ccc(Cl)cc3)S2(=O)=O)cc1 | 17.6 |  |  |
| CCCCCSc1cc(OC)c(CCN(C)C)cc1OC | -21 |  | 6.51 µM [falling, single point] |
| CCn1c(=O)cc(OCC(=O)N2CCN(Cc3ccc4c(c3)OCO4)CC2)c2ccccc21 | 29 |  | 29.1 µM [rising, single point] |
| CC(Oc1ccc(-c2ccccc2)cc1)C(=O)O (stereo unspecified) | 108 | 29.1 µM [rising, single point] | 0.731 µM [rising, single point] |
| Cc1ccc2c(c1)CC1(CN2C)C(=O)NC(=O)N(c2cc(C)ccc2C)C1=O (stereo unspecified) | 89 | 9.2 µM [rising, partial curve] | 20.6 µM [rising, partial curve] |
| O=C(c1ccc2c(c1)N(Cc1ccccc1)CCS2)N1CCC2(CC1)OCCO2 | -3.54 |  | 20.6 µM [falling, partial curve] |
| CCOc1ccccc1CNCCc1ccc2c(c1)OCO2 | -7.35 |  | 20.6 µM [rising, single point] |
| N[C@@H]1C[C@H]1c1ccccc1 | 13.1 |  | 0.184 µM [rising, full curve, poor fit] |
| CCOP(=O)(OCC)C(Nc1ccccc1)c1ccccc1C(F)(F)F (stereo unspecified) |  | 2.31 µM [rising, single point] |  |
| COc1ccc(-n2c(O)c(C=NCCCn3ccnc3)c(=O)[nH]c2=O)cc1 | -11.3 | 6.51 µM [falling, single point] | 5.17 µM [falling, full curve] |
| CCOC(=O)c1cc(CC)sc1/N=C/c1c(O)[nH]c(=S)[nH]c1=O | 7.45 | 0.461 µM [falling, single point] | 0.461 µM [falling, partial curve, poor fit] |
